No constants are given. Whether binding was seen depends on the method and setting. Some entries that bind do so weakly or less than the wild type.
T1: non-canonical Type I peptide #268 (yeast two-hybrid bait) (S. cerevisiae)
T1 sequence (peptide): ITHRLRISIPGITGR

Protein sequences, listed by entry. Tags and fused reporters are not part of them. Residues count along the entry.
UniProt P39743, residues 421-482: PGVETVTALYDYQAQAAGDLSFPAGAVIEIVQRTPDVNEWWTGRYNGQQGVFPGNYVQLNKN

T2: Type II peptide #66 (yeast two-hybrid bait) (S. cerevisiae)
T2 sequence (peptide): SSSSTPPTLPPRRIE

B1: C. albicans Rvs167 SH3 domain (yeast two-hybrid prey) (domain or fragment, UniProt Q59LF3 382-440)
chain: SGLPTCTALYDYTAQAQGDLTFPAGAVIEIIQRTEDANGWWTGKYNGQTGVFPGNYVQL
B2: S. pombe Rvs167 (Hob1) SH3 domain (yeast two-hybrid prey) (domain or fragment, UniProt O74352 407-466)
chain: PAAEHVVALYDYAAQAAGDLSFHAGDRIEVVSRTDNQNEWWIGRLNGAQGQFPGNYVQLE

Tests used:
[1] = target: T1, non-canonical Type I peptide #268 (yeast two-hybrid bait) (S. cerevisiae); test: two-hybrid; peptides as bait in pGBKT7, SH3 domains as prey in pYR035 (modified pGADT7); S. cerevisiae Gold strain; ~10^4 cells spotted on His-, His- with 2.5, 5 or 10 mM 3AT, or Ade- plates; three days at 28°C
[2] = target: T2, Type II peptide #66 (yeast two-hybrid bait) (S. cerevisiae); test: as above

Molecule | binding [1] | binding [2]
S. cerevisiae Rvs167 SH3 domain (yeast two-hybrid prey) (from UniProt P39743 421-482) (domain or fragment) | no binding | binds
B1 | no binding | binds
B2 | no binding | binds
